Laboratory results: PubChem BioAssay AID602196 (INSERM, 2012)
Purpose: 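Modifiers of cisplatin sensitivity in A549 cells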. Cell system: human A549 lung cancer cells. Knock-down reagent: siRNA pair against human genes. Time to read-out: 48 h transfection before cisplatin; time from cisplatin to read-out not stated. Treatment: cisplatin at a dose killing half of control-siRNA cells; exact dose and duration not given. Measured: 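Cisplatin cell death as a shift from the 50% death seen with control siRNA; siRNAs toxic or growth-blocking alone scored 0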. Direction: two-siRNA summed score (-2 to +2): higher = both siRNAs protect from cisplatin killing; -2 means both sensitise. Call rule: 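Each siRNA scores 0 if harmful alone by LDH or WST-1, otherwise +1 if it reduces and -1 if it increases cisplatin killing; a gene is active when both siRNAs agree (sum +2 or -2)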. Meaning of the calls: active = both siRNAs shift cisplatin killing the same way; inactive = no consistent shift, or siRNA harmful alone.
This is one part, drawn at random, of about 23,000 reagents. 455 of them (2%) count as active. 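Active includes both protection and sensitisation; some change values fall well beyond the stated -50 to +50 range.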 Not all columns of the deposit are shown. Not stated in the record: the amount of reagent.

SLC37A1 — two-siRNA summed score (-2 to +2) = 0; outcome = inactive
LOC348801 — two-siRNA summed score (-2 to +2) = 0; outcome = inactive
MRM2 — two-siRNA summed score (-2 to +2) = 1; outcome = inactive
MIB1 — two-siRNA summed score (-2 to +2) = 0; outcome = inactive
LOC440091 — two-siRNA summed score (-2 to +2) = 0; outcome = inactive
GRID2IP — two-siRNA summed score (-2 to +2) = -1; outcome = inactive
ARF3 — two-siRNA summed score (-2 to +2) = 1; outcome = inactive
MASP1 — two-siRNA summed score (-2 to +2) = -1; outcome = inactive
LOC391656 — two-siRNA summed score (-2 to +2) = 1; outcome = inactive
RHOQ — two-siRNA summed score (-2 to +2) = 0; outcome = inactive
NIPA2 — two-siRNA summed score (-2 to +2) = 0; outcome = inactive
ZNF680 — two-siRNA summed score (-2 to +2) = 1; outcome = inactive
LOC149297 — two-siRNA summed score (-2 to +2) = 1; outcome = inactive
CD3D — two-siRNA summed score (-2 to +2) = 0; outcome = inactive

5 of these entries in another layout:
gene | two-siRNA summed score (-2 to +2) | outcome
RHOQ | 0 | inactive
NIPA2 | 0 | inactive
ZNF680 | 1 | inactive
LOC149297 | 1 | inactive
CD3D | 0 | inactive

Further results follow.
LOC441920 — two-siRNA summed score (-2 to +2) = 0; outcome = inactive
GDNF — two-siRNA summed score (-2 to +2) = 0; outcome = inactive
COL12A1 — two-siRNA summed score (-2 to +2) = 1; outcome = inactive
ZNF200 — two-siRNA summed score (-2 to +2) = 0; outcome = inactive
ARSG — two-siRNA summed score (-2 to +2) = -1; outcome = inactive
IFI16 — two-siRNA summed score (-2 to +2) = -1; outcome = inactive
FUCA1 — two-siRNA summed score (-2 to +2) = 1; outcome = inactive
TEKT3 — two-siRNA summed score (-2 to +2) = 0; outcome = inactive
SLC16A2 — two-siRNA summed score (-2 to +2) = 0; outcome = inactive
LOC139431 — two-siRNA summed score (-2 to +2) = -1; outcome = inactive
PPM1A — two-siRNA summed score (-2 to +2) = 1; outcome = inactive
LRIT2 — two-siRNA summed score (-2 to +2) = 2; outcome = active
DCN — two-siRNA summed score (-2 to +2) = 0; outcome = inactive
LOC440513 — two-siRNA summed score (-2 to +2) = -1; outcome = inactive
RAP1GAP2 — two-siRNA summed score (-2 to +2) = 0; outcome = inactive
SDR9C7 — two-siRNA summed score (-2 to +2) = 2; outcome = active
PEF1 — two-siRNA summed score (-2 to +2) = 0; outcome = inactive
ANKRD11 — two-siRNA summed score (-2 to +2) = 0; outcome = inactive
VTI1B — two-siRNA summed score (-2 to +2) = 0; outcome = inactive
SLC10A7 — two-siRNA summed score (-2 to +2) = 0; outcome = inactive
NAA50 — two-siRNA summed score (-2 to +2) = 0; outcome = inactive
RGS4 — two-siRNA summed score (-2 to +2) = 0; outcome = inactive
LOC442380 — two-siRNA summed score (-2 to +2) = 0; outcome = inactive
ABHD12 — two-siRNA summed score (-2 to +2) = 0; outcome = inactive
DRC4 — two-siRNA summed score (-2 to +2) = 1; outcome = inactive
PPM1G — two-siRNA summed score (-2 to +2) = 1; outcome = inactive
